Assay results as given in patent US20080312101A1.
No constants are given. Whether binding was seen depends on the method and setting. Where a sequence is shown, tags or fusion partners need not be part of it.

Target: Hepatitis C virus E2 protein (recombinant) (Hepatitis C virus)
Assay: phage panning on protein-coated ELISA wells, eluted phage counted as cfu

B1: HAcp3* (HA tag fused to DIS linker2-modified M13 coat protein 3), displayed on recombinant phage (protein)
chain: QVKLLEYPYDVPDYATSGQAGQGGGGSPFVCEYQGQSSDLPQPPVNAGGGSGGGSGGGSEGGGSEGGGSEGGGSEGGGSGGGSGSGDFDYEKMANANKGAMTENADENALQSDAKGKLDSVATDYGAAIDGFIGDVSGLANGNGATGDFAGSNSQMAQVGDGDNSPLMNNFRQYLPSLPQSVECRPFVFGAGKPYEFSIDCDKINLFRGVFAFLLYVATFMYVFSTFANILRNKES
- binding: no binding
